This is one part of the list.
Key:
Assay in all cases: log2 fold change, soluble protein after heating vs DMSO (PISA); higher = thermal stabilisation; K562 lysate, 10 uM; active = over 0.2 and 3.5 SD of the protein, either way, in both replicates (recomputed)
vemurafenib = compound: CCCS(=O)(=O)Nc1ccc(F)c(C(=O)c2c[nH]c3ncc(-c4ccc(Cl)cc4)cc23)c1F [vemurafenib]
Method in brief: (§1)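 The values are log-two fold changes in thermal stability compared with solvent controls and come from duplicates. They were obtained by TMTpro 16plex LC-MS/MS, with channel sums equalised, on the supernatant after 21,000xg for 90 min. That supernatant came from crude K562 extract at 1 mg/mL protein treated with 10 μM compound for 30 min, heated for 3 min across 48°C-58°C, pooled and brought to 0.5% NP-40 at 4°C.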

Amino acid sequences for entries named in this document (tags omitted). A change or cut given only in a name is not applied to a line headed by its entry.
UniProt Q53EZ4: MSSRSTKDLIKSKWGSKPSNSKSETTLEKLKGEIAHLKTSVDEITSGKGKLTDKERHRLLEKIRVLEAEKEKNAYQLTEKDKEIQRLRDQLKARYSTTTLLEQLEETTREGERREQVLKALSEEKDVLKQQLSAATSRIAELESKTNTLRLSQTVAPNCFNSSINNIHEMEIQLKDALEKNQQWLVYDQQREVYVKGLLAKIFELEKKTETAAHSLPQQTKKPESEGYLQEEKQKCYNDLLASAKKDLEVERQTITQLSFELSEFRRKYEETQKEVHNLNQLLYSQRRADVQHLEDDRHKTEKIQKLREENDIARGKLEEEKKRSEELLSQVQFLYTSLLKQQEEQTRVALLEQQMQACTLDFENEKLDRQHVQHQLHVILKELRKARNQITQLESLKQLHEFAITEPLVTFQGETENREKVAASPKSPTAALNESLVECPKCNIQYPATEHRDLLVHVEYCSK
UniProt Q7L2Z9: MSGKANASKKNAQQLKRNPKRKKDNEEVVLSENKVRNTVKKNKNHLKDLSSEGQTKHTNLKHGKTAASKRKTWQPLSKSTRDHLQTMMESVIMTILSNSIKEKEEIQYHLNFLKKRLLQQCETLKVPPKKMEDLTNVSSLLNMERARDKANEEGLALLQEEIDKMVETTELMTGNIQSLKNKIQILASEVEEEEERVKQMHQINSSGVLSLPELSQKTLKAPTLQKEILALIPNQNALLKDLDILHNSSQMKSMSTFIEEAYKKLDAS
UniProt Q9Y281, whole entry, looked up: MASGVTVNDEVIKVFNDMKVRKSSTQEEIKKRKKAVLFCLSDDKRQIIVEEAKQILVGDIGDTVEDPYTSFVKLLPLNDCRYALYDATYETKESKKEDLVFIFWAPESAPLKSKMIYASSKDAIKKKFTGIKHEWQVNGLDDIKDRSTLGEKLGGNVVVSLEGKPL
UniProt P60953, whole entry, looked up: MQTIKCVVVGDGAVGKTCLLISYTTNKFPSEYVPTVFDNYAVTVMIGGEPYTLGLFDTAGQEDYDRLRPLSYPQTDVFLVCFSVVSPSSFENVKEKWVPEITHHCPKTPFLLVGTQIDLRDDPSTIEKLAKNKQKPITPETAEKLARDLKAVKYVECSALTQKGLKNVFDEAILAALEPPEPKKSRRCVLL
UniProt Q9Y6K0: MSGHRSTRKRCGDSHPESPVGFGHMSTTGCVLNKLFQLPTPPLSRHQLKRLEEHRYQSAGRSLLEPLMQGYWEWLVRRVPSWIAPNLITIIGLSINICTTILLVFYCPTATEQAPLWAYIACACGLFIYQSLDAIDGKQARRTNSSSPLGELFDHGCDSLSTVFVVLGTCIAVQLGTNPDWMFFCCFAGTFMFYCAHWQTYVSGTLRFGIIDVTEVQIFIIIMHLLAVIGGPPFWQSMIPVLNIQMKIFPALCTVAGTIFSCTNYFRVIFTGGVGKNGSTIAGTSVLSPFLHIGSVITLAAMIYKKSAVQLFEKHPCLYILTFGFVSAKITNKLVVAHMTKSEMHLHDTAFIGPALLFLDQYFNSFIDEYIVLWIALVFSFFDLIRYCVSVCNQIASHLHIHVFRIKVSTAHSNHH
UniProt P49918: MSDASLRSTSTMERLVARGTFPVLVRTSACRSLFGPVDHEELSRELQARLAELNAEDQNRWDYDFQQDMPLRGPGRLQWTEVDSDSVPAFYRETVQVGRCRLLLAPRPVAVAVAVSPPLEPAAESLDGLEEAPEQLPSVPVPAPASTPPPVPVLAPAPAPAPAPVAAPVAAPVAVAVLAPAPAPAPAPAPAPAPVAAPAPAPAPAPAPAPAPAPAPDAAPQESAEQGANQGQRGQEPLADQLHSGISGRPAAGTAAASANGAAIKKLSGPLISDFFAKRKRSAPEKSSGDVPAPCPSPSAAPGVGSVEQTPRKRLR
UniProt Q14004, whole entry, looked up: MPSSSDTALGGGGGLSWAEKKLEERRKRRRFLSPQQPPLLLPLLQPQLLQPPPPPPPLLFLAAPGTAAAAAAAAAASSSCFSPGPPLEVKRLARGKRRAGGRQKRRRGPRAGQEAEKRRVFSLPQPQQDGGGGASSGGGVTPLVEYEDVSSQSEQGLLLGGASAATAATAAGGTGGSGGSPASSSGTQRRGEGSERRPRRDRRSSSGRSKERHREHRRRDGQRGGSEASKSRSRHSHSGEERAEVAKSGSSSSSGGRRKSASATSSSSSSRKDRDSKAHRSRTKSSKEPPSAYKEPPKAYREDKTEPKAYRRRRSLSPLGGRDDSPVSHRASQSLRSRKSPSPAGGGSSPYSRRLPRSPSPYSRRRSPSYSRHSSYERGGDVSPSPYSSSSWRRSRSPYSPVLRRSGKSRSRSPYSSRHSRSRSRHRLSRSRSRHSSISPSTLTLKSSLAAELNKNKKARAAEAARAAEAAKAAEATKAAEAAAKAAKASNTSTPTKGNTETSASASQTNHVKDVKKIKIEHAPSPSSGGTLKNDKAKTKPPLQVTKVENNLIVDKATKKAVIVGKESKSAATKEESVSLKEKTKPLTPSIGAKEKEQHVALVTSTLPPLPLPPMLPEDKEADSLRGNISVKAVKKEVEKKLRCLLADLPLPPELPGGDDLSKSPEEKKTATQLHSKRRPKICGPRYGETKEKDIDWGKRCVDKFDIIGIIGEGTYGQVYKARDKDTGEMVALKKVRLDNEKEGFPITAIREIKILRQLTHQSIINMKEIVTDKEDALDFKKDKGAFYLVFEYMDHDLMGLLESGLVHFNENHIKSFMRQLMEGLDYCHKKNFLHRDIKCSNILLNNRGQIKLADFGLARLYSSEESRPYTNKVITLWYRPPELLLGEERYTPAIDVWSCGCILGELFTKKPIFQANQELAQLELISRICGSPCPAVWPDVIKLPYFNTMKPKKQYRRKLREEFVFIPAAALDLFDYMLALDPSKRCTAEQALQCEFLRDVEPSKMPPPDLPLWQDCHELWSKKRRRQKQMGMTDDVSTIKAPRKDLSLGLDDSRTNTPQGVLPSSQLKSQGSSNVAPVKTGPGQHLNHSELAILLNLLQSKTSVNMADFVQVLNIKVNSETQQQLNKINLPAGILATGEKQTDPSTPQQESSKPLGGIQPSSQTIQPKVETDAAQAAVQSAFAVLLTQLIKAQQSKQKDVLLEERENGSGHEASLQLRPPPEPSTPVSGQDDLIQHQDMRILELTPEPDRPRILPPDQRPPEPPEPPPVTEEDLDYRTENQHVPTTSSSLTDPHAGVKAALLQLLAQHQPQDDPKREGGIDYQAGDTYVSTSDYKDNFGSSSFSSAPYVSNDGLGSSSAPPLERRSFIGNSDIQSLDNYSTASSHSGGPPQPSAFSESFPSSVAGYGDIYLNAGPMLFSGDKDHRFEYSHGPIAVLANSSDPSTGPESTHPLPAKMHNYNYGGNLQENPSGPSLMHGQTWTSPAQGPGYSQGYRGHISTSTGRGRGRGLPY
UniProt P30260, whole entry, looked up: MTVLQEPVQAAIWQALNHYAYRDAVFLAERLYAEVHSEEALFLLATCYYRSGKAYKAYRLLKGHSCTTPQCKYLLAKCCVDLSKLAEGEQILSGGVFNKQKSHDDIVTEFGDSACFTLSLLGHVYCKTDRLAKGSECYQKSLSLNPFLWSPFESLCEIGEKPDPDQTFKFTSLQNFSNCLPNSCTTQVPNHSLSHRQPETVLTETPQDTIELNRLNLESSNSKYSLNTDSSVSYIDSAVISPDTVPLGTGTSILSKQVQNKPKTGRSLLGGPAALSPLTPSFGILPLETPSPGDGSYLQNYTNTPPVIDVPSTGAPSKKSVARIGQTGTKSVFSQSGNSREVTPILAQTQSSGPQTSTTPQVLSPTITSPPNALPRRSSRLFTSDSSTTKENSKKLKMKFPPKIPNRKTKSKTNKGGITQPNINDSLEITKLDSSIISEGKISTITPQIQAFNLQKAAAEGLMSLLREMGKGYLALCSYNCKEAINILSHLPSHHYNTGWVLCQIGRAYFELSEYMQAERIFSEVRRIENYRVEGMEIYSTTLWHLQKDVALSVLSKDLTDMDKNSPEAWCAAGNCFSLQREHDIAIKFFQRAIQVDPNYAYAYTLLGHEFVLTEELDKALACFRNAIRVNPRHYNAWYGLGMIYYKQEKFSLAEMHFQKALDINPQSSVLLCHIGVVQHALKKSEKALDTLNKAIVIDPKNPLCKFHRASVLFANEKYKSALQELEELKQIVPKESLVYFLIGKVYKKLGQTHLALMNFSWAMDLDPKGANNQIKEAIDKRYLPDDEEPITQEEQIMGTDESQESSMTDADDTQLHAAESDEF
UniProt Q9UEE9, whole entry, looked up: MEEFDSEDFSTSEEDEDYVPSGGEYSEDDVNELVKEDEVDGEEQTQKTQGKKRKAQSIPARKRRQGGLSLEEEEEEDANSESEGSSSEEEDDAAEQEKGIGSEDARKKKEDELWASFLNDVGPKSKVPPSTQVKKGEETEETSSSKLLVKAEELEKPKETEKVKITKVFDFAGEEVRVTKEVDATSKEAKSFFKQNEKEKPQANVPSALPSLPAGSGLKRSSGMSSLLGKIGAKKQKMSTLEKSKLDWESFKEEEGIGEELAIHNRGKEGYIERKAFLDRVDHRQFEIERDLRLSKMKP
UniProt Q9H5V8, whole entry, looked up: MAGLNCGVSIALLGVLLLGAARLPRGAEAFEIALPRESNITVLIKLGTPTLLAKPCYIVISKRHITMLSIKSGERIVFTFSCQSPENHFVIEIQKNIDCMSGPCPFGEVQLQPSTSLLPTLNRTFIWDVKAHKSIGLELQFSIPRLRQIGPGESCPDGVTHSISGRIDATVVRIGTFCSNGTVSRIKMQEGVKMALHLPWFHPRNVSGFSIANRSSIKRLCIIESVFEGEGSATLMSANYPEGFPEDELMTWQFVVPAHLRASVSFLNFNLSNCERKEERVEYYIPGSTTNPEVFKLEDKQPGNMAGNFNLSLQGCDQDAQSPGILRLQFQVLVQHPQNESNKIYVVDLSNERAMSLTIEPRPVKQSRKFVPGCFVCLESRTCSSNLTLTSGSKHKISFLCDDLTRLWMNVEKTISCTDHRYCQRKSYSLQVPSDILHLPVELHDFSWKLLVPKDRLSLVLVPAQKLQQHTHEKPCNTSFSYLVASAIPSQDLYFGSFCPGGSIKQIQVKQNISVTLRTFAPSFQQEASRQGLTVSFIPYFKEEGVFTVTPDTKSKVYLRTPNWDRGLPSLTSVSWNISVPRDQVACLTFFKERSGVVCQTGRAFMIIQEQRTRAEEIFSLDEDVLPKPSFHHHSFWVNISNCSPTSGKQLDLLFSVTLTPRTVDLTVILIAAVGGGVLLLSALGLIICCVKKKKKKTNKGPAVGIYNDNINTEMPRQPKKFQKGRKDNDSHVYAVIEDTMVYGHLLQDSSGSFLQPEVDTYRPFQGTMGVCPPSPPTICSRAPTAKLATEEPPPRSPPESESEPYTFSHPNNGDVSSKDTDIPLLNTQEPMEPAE
UniProt P08603, whole entry, looked up: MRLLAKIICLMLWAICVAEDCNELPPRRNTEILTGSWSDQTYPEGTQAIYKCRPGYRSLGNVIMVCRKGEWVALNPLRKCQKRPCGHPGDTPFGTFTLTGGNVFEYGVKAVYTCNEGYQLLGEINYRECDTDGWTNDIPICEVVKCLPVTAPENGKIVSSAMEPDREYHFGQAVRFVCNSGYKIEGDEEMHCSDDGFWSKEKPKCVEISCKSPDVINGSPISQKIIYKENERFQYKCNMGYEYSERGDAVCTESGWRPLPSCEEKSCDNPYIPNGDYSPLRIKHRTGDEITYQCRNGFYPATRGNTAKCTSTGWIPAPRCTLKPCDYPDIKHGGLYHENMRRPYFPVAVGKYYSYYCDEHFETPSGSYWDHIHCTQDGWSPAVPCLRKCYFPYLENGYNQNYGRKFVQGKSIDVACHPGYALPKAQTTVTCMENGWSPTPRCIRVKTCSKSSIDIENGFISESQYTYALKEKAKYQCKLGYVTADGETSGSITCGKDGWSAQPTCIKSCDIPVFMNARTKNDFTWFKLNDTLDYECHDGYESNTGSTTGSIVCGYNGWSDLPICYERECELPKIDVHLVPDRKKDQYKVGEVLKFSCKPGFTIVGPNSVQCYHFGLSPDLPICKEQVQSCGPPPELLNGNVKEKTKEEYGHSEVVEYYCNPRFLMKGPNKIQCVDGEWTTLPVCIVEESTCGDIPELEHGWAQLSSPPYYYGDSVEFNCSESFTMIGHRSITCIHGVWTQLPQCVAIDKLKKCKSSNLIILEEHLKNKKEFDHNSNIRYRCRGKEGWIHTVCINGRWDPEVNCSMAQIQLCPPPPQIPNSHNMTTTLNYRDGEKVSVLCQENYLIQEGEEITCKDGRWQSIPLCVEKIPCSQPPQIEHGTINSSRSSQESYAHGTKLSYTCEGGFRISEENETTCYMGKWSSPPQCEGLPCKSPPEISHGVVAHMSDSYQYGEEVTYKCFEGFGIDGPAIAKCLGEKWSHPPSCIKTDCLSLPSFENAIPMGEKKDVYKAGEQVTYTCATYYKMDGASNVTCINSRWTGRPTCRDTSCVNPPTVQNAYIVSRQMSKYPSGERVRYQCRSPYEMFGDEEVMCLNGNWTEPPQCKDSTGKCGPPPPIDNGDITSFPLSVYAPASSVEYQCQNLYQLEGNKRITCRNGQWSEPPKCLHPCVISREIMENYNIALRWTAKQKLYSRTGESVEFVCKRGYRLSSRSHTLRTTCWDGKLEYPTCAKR

[1] = compound: CCCS(=O)(=O)Nc1ccc(F)c(C(=O)c2c[nH]c3ncc(Cl)cc23)c1F
Method in brief: as §1

barasertib = compound: CCN(CCCOc1ccc2c(Nc3cc(CC(=O)Nc4cccc(F)c4)[nH]n3)ncnc2c1)CCOP(=O)(O)O [barasertib]
Method in brief: as §1

[2] = compound: CC[C@@H]1C(=O)N(C)c2cnc(Nc3ccc(C(=O)NC4CCN(C)CC4)cc3OC)nc2N1C1CCCC1
Method in brief: as §1

volasertib = compound: CC[C@@H]1C(=O)N(C)c2cnc(Nc3ccc(C(=O)N[C@H]4CC[C@H](N5CCN(CC6CC6)CC5)CC4)cc3OC)nc2N1C(C)C [volasertib]
Method in brief: as §1

[3] = compound: CCn1c(C(=O)N(C2CC2)C2CC2)cc2c3c(ncn3C)c(Nc3cc(C)n(C)n3)nc21
Method in brief: as §1

[4] = compound: CCn1cc(-c2ccnc3[nH]c(-c4cccc(CN(C)C)c4)cc23)c(-c2ccc(NC(=O)N(C)C)cc2)n1
Method in brief: as §1

[5] = compound: CN1CCC(CNc2ccc3ncc(-c4cccc(OC(F)(F)F)c4)n3n2)CC1
Method in brief: as §1

saracatinib = compound: CN1CCN(CCOc2cc(OC3CCOCC3)c3c(Nc4c(Cl)ccc5c4OCO5)ncnc3c2)CC1 [saracatinib]
Method in brief: as §1

sotrastaurin = compound: CN1CCN(c2nc(C3=C(c4c[nH]c5ccccc45)C(=O)NC3=O)c3ccccc3n2)CC1 [sotrastaurin]
Method in brief: as §1

alvocidib = compound: CN1CC[C@H](c2c(O)cc(O)c3c(=O)cc(-c4ccccc4Cl)oc23)[C@H](O)C1 [alvocidib]
Method in brief: as §1

Tubastatin A = compound: CN1CCc2c(c3ccccc3n2Cc2ccc(C(=O)NO)cc2)C1 [Tubastatin A]
Method in brief: as §1

[6] = compound: CNC(=O)C1=CC=CC=C1NC2=NC(=NC=C2Cl)NC3=C(C=C(C=C3)N4CCOCC4)OC
Method in brief: as §1

defactinib = compound: CNC(=O)c1ccc(Nc2ncc(C(F)(F)F)c(NCc3nccnc3N(C)S(C)(=O)=O)n2)cc1 [defactinib]
Method in brief: as §1

[7] = compound: CNc1nc(-c2ccc3c(N)n[nH]c3c2)cc(N2C[C@@H](C(=O)NC3CCCCC3)CC[C@H]2C)n1
Method in brief: as §1

encorafenib = compound: COC(=O)N[C@@H](C)CNc1nccc(-c2cn(C(C)C)nc2-c2cc(Cl)cc(NS(C)(=O)=O)c2F)n1 [encorafenib]
Method in brief: as §1

[8] = compound: COC(=O)[C@H](CCSC)NC(=O)C1=C(C=C(C=C1)NC[C@H](CS)N)C2=CC=CC=C2
Method in brief: as §1

alisertib = compound: COc1cc(Nc2ncc3c(n2)-c2ccc(Cl)cc2C(c2c(F)cccc2OC)=NC3)ccc1C(=O)O [alisertib]
Method in brief: as §1

[9] = compound: COc1cc2nc(-c3cc(F)ccc3O)nc(N[C@@H]3CNC[C@H]3C(C)(C)O)c2cc1OC
Method in brief: as §1

gefitinib = compound: COc1cc2ncnc(Nc3ccc(F)c(Cl)c3)c2cc1OCCCN1CCOCC1 [gefitinib]
Method in brief: as §1

Target	log2 fold change (vemurafenib)	log2 fold change [1]	log2 fold change (barasertib)	log2 fold change [2]	log2 fold change (volasertib)	log2 fold change [3]	log2 fold change [4]	log2 fold change [5]	log2 fold change (saracatinib)	log2 fold change (sotrastaurin)	log2 fold change (alvocidib)	log2 fold change (Tubastatin A)	log2 fold change [6]	log2 fold change (defactinib)	log2 fold change [7]	log2 fold change (encorafenib)	log2 fold change [8]	log2 fold change (alisertib)	log2 fold change [9]	log2 fold change (gefitinib)
CDC42BPB (UniProt Q9Y5S2)	inactive: 0.074	inactive: 0.038	inactive: 0.022	inactive: -0.079	inactive: -0.011	inactive: -0.011	inactive: 0.242	inactive: -0.233	inactive: -0.003	inactive: -0.029	inactive: -0.098	inactive: 0.039	inactive: -0.167	inactive: -0.072	inactive: 0.181	inactive: 0.118	inactive: -0.168	inactive: -0.014	inactive: 0.128	inactive: 0.055
CDCA3 (UniProt Q99618)	inactive: 0.01	inactive: -0.002	inactive: -0.016	inactive: 0.064	inactive: 0.031	inactive: -0.077	inactive: -0.074	inactive: 0.062	inactive: 0.016	inactive: -0.042	inactive: -0.014	inactive: 0.076	inactive: -0.016	inactive: 0.029	inactive: 0.17	inactive: 0.015	inactive: -0.028	inactive: -0.019	inactive: 0.007	inactive: 0.026
CEP55 (UniProt Q53EZ4)	inactive: -0.023	inactive: -0.002	inactive: -0.023	inactive: -0.001	inactive: -0.008	inactive: -0.025	inactive: 0.03	inactive: -0.006	inactive: -0.007	inactive: 0.022	inactive: 0.019	inactive: 0.069	inactive: -0.008	inactive: 0.066	inactive: 0.068	inactive: 0.028	inactive: 0.039	inactive: -0.077	inactive: -0.075	inactive: 0.041
CENPQ (UniProt Q7L2Z9)	inactive: 0.069	inactive: -0.167	inactive: 0.038	inactive: -0.023	inactive: -0.115	inactive: -0.084	active: -0.44	inactive: 0.095	inactive: 0.033	inactive: 0.023	inactive: -0.122	inactive: -0.016	inactive: 0.032	inactive: -0.085	inactive: 0.055	inactive: 0.169	inactive: 0.025	inactive: 0	inactive: -0.068	inactive: 0.091
CFL2 (UniProt Q9Y281)	inactive: -0.012	inactive: 0.005	inactive: -0.021	inactive: 0.028	inactive: 0	inactive: -0.023	inactive: -0.063	inactive: 0.032	inactive: -0.068	inactive: 0.013	inactive: -0.012	inactive: 0.015	inactive: 0.015	inactive: 0.139	inactive: 0.107	inactive: -0.003	inactive: 0.009	inactive: 0.002	inactive: 0.005	inactive: 0.065
CDC42 (UniProt P60953)	inactive: -0.064	inactive: -0.032	inactive: -0.019	inactive: 0.101	inactive: -0.017	inactive: 0.024	inactive: 0.159	inactive: -0.148	inactive: 0.001	inactive: -0.008	inactive: 0.023	inactive: 0.045	inactive: -0.069	inactive: -0.052	inactive: 0.04	inactive: -0.039	inactive: 0.013	inactive: -0.104	inactive: 0.025	inactive: 0.086
CEPT1 (UniProt Q9Y6K0)	inactive: -0.031	inactive: 0.006	inactive: 0.08	inactive: -0.006	inactive: 0.042	inactive: -0.079	inactive: -0.102	inactive: 0.084	inactive: 0.037	inactive: -0.008	inactive: -0.012	inactive: 0.055	inactive: -0.024	inactive: 0	inactive: -0.051	inactive: 0.019	inactive: -0.025	inactive: 0.054	inactive: -0.123	inactive: -0.036
CDKN1C (UniProt P49918)	inactive: -0.275	inactive: -0.003	inactive: -0.041	inactive: 0.027	inactive: -0.066	inactive: 0.019	inactive: 0.073	inactive: 0.03	inactive: -0.14	inactive: -0.054	inactive: -0.035	inactive: -0.056	inactive: 0.025	inactive: -0.186	inactive: -0.067	inactive: -0.037	inactive: -0.019	inactive: -0.082	inactive: 0.046	inactive: -0.136
CDK13 (UniProt Q14004)	inactive: -0.124	inactive: -0.031	inactive: -0.061	inactive: 0.002	inactive: -0.123	inactive: 0.106	inactive: -0.09	inactive: 0.04	inactive: 0.074	inactive: -0.036	active: 0.287	inactive: -0.1	inactive: -0.044	inactive: 0.139	inactive: -0.184	inactive: -0.005	inactive: -0.033	inactive: 0.043	inactive: 0.078	inactive: 0.007
CDC27 isoform 2 (UniProt P30260)	inactive: -0.007	inactive: 0.011	inactive: 0.013	inactive: -0.024	inactive: -0.022	inactive: 0.017	inactive: -0.015	inactive: -0.042	inactive: 0.015	inactive: -0.017	inactive: 0.013	inactive: -0.096	inactive: 0.047	inactive: 0.001	inactive: -0.013	inactive: 0.022	inactive: -0.017	inactive: -0.015	inactive: -0.009	inactive: -0.017
CFDP1 (UniProt Q9UEE9)	inactive: -0.02	inactive: -0.008	inactive: -0.066	inactive: 0.025	inactive: 0.039	inactive: -0.015	active: -0.311	inactive: 0.105	inactive: -0.007	inactive: 0.024	inactive: -0.104	inactive: 0.057	inactive: 0.042	inactive: -0.01	inactive: -0.051	inactive: 0.005	inactive: -0.021	inactive: -0.013	inactive: 0.015	inactive: -0.005
CFAP36 (UniProt Q96G28)	inactive: -0.041	inactive: 0.043	inactive: -0.014	inactive: 0.121	inactive: -0.007	inactive: -0.042	inactive: 0.12	inactive: -0.014	inactive: -0.011	inactive: -0.019	inactive: 0.019	inactive: 0.065	inactive: 0.027	inactive: 0.016	inactive: 0.033	inactive: 0.017	inactive: -0.004	inactive: -0.032	inactive: 0.05	inactive: 0.017
CELF1 isoform 4 (UniProt Q92879)	inactive: 0.024	inactive: 0.014	inactive: 0.03	inactive: -0.044	inactive: -0.133	inactive: 0.012	inactive: 0.08	inactive: -0.08	inactive: 0.035	inactive: 0.054	inactive: 0	inactive: -0.167	inactive: 0.034	inactive: 0.049	inactive: -0.059	inactive: 0.108	inactive: -0.031	inactive: 0.048	inactive: -0.026	inactive: 0.056
CENPF (UniProt P49454)	inactive: 0	inactive: 0.02	inactive: 0.003	inactive: 0.132	inactive: 0.004	inactive: 0.02	inactive: 0.083	inactive: -0.041	inactive: 0.01	inactive: 0.003	inactive: 0	inactive: -0.042	inactive: 0.02	inactive: 0.032	inactive: 0.004	inactive: 0.011	inactive: -0.061	inactive: -0.006	inactive: 0.03	inactive: 0.046
CDCP1 (UniProt Q9H5V8)	inactive: -0.009	inactive: 0.029	inactive: 0.017	inactive: -0.071	inactive: 0.012	inactive: -0.017	inactive: -0.074	inactive: 0.078	inactive: 0.018	inactive: 0.011	inactive: -0.058	inactive: 0.022	inactive: -0.036	inactive: -0.036	inactive: -0.045	inactive: 0.01	inactive: -0.102	inactive: -0.015	inactive: 0.001	inactive: 0.014
CFH (UniProt P08603)	inactive: 0.021	inactive: 0.034	inactive: 0	inactive: 0.024	inactive: 0.108	inactive: 0.006	inactive: 0.122	inactive: -0.087	inactive: -0.096	inactive: 0.047	inactive: 0.062	inactive: 0.018	inactive: 0.006	inactive: -0.007	inactive: 0.128	inactive: 0	inactive: 0.016	inactive: -0.068	inactive: 0.062	inactive: -0.096

Single entries from the entries so far:
For log2 fold change (sotrastaurin), CDK13 (UniProt Q14004) reads inactive: -0.036
For log2 fold change (alvocidib), CFH (UniProt P08603) reads inactive: 0.062

Reference: the supplement of paper PMC10849652
